One compound from article PMC8402715 (Viruses, 2021) can be followed below.

This data set in a line: Cell viability assay (Cell Titer Glow) in mock-infected RPE cells, cytotoxicity. To be noted: human. (ATP-based viability assays read luminescence as a measure of living cells.)

The CC50 is the concentration that lowers cell viability or growth by half. Lower therefore signals harm at low concentration. Compound `Clc1ccc2c(c1)CCc1cccnc1C2=C1CCNCC1` [desloratadine, Desloratadine] gave a CC50 at 48 h of 46.7 µM.
